Measurements published in the supplement of paper PMC9454738.
Counter-ions that a name gives are not always drawn. ± gives the standard deviation of the averaged measurements. The list shows a part of the results. Single values are uncertain here, since repeats match poorly.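 Assays used MDA-MB-231 triple-negative breast cancer cells and their brain-metastatic line MDA-MB-231BRM, stably carrying empty vector, full-length GLI1 or truncated tGLI1. After 48 h, viability was read with CellTiter-Blue and normalized to 1% DMSO vehicle. tGLI1 selectivity meant viability fell 20% more in tGLI1 cells than in vector and GLI1 cells.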

Tests used:
Experiment in all cases: cell viability relative to vehicle (DMSO) control (fraction); higher = more viable cells (less growth inhibition)
Conditions in all cases: treatment time 48 h
MDA-MB-231 GLI1 = test system: MDA-MB-231 GLI1
MDA-MB-231 Vector = test system: MDA-MB-231 Vector
MDA-MB-231 tGLI1 = test system: MDA-MB-231 tGLI1
MDA-MB-231BRM GLI1 = test system: MDA-MB-231BRM GLI1
MDA-MB-231BRM Vector = test system: MDA-MB-231BRM Vector
MDA-MB-231BRM tGLI1 = test system: MDA-MB-231BRM tGLI1

Compound | cell viability (MDA-MB-231 GLI1; 0.05 µM) | cell viability (MDA-MB-231 GLI1; 0.5 µM) | cell viability (MDA-MB-231 GLI1; 5 µM) | cell viability (MDA-MB-231 Vector; 0.05 µM) | cell viability (MDA-MB-231 Vector; 0.5 µM) | cell viability (MDA-MB-231 Vector; 5 µM) | cell viability (MDA-MB-231 tGLI1; 0.05 µM) | cell viability (MDA-MB-231 tGLI1; 0.5 µM) | cell viability (MDA-MB-231 tGLI1; 5 µM) | cell viability (MDA-MB-231BRM GLI1; 0.05 µM) | cell viability (MDA-MB-231BRM GLI1; 0.5 µM) | cell viability (MDA-MB-231BRM GLI1; 5 µM) | cell viability (MDA-MB-231BRM Vector; 0.05 µM) | cell viability (MDA-MB-231BRM Vector; 0.5 µM) | cell viability (MDA-MB-231BRM Vector; 5 µM) | cell viability (MDA-MB-231BRM tGLI1; 0.05 µM) | cell viability (MDA-MB-231BRM tGLI1; 0.5 µM) | cell viability (MDA-MB-231BRM tGLI1; 5 µM)
CO[C@H]1C[C@@H]2CC[C@@H](C)[C@@](O)(O2)C(=O)C(=O)N2CCCC[C@H]2C(=O)O[C@H]([C@H](C)C[C@@H]2CC[C@@H](O)[C@H](OC)C2)CC(=O)[C@H](C)/C=C(\C)[C@@H](O)[C@@H](OC)C(=O)[C@H](C)C[C@H](C)/C=C/C=C/C=C/1C [Rapamycin (Sirolimus)] | 0.866 ± 0.04 | 0.835 ± 0.28 | 0.606 ± 0.11 | 0.803 ± 0.1 | 0.655 ± 0.14 | 0.583 ± 0.054 | 0.773 ± 0.079 | 0.682 ± 0.15 | 0.591 ± 0.065 | 0.847 ± 0.016 | 0.803 ± 0.087 | 0.75 ± 0.17 | 0.827 ± 0.018 | 0.8356 ± 0.0035 | 0.778 ± 0.19 | 0.912 ± 0.025 | 0.795 ± 0.012 | 0.785 ± 0.12
Nc1ccc(-c2ccc3ncc4ccc(=O)n(-c5cccc(C(F)(F)F)c5)c4c3c2)cn1 [Torin 2] | 0.337 | 0.212 | 0.101 | 0.402 | 0.282 | 0.208 | 0.388 | 0.228 | 0.222 | 0.958 | 1.03 | 0.876 | 0.951 | 1.01 | 0.959 | 0.925 | 0.964 | 0.816
C[C@@H](Oc1cc(-c2cnn(C3CCNCC3)c2)cnc1N)c1c(Cl)ccc(F)c1Cl | 1.3 ± 0.22 | 1.23 ± 0.43 | 0.554 ± 0.22 | 1.04 ± 0.43 | 1.14 ± 0.029 | 0.452 ± 0.14 | 1.19 ± 0.07 | 1.08 ± 0.4 | 0.376 ± 0.2 | 0.96 ± 0.059 | 0.955 ± 0.032 | 0.816 ± 0.12 | 0.988 ± 0.1 | 0.971 ± 0.043 | 0.926 ± 0.074 | 0.989 ± 0.14 | 0.971 ± 0.037 | 0.893 ± 0.013
C[S+]([O-])c1ccc(-c2nc(-c3ccc(F)cc3)c(-c3ccncc3)[nH]2)cc1 (centres undefined) | 1.45 | 1.82 | 1.32 | 1.43 | 1.28 | 0.932 | 1.13 | 1.29 | 1.02 | 0.924 | 0.934 | 0.881 | 0.94 | 0.87 | 0.981 | 0.899 | 0.896 | 0.904
COc1cc(Nc2ncc(F)c(Nc3ccc4c(n3)N(COP(=O)(O)O)C(=O)C(C)(C)O4)n2)cc(OC)c1OC [Fostamatinib (R788)] | 0.924 | 1.07 | 0.145 | 1.01 | 0.872 | 0.23 | 1.18 | 1.15 | 0.195 | 1.02 | 1.05 | 0.901 | 1.05 | 0.949 | 0.831 | 1.01 | 0.988 | 0.755
CCNC(=O)Nc1ccc(-c2nc3c(c(N4CCOC[C@@H]4C)n2)CCN(C2COC2)C3)cc1 | 1.91 | 2.22 | 0.761 | 1.11 | 0.836 | 0.421 | 1.12 | 0.775 | 0.479 | 0.79 | 0.706 | 0.588 | 0.813 | 0.711 | 0.573 | 1.15 | 0.901 | 1.03
CN(C)C/C=C/C(=O)Nc1cc2c(Nc3ccc(F)c(Cl)c3)ncnc2cc1O[C@H]1CCOC1 [Afatinib (BIBW2992)] | 1.15 ± 0.14 | 1.48 ± 0.069 | -0.273 ± 0.11 | 1.049 ± 0.0083 | 1.09 ± 0.036 | -0.369 ± 0.41 | 0.998 ± 0.17 | 1.01 ± 0.26 | -0.285 ± 0.2 | 0.909 ± 0.062 | 0.8837 ± 0.0022 | 0.834 ± 0.15 | 0.906 ± 0.12 | 0.971 ± 0.16 | 0.801 ± 0.12 | 0.949 ± 0.038 | 0.9 ± 0.042 | 0.821 ± 0.033
CC(C)(C)NS(=O)(=O)c1cncc(-c2cc(F)c3nc(N)nn3c2)c1 | 0.969 | 1.27 | 0.921 | 1.13 | 1.2 | 1.05 | 1.02 | 1.18 | 1.03 | 1 | 1.02 | 0.865 | 1.04 | 1.04 | 1.02 | 1.03 | 0.993 | 1.02
CC[C@@H]([C@H](C)O)n1ncn(-c2ccc(N3CCN(c4ccc(OC[C@@H]5CO[C@@](Cn6cncn6)(c6ccc(F)cc6F)C5)cc4)CC3)cc2)c1=O [Posaconazole] | 1.12 | 1.09 | 0.842 | 1.07 | 1.21 | 0.906 | 0.999 | 1.04 | 0.853 | 1.08 | 0.977 | 0.596 | 1.05 | 0.967 | 0.775 | 1.09 | 0.939 | 0.822
Cc1cc(C(=O)NOCCO)c(Nc2ccc(I)cc2F)n(C)c1=O | 0.751 | 0.305 | 0.803 | 0.862 | 0.533 | 0.603 | 0.68 | 0.624 | 0.737 | 1.25 | 1.22 | 0.923 | 1.27 | 1.07 | 1.05 | 0.619 | 1.27 | 0.876
C[C@H]1O[C@H](O[C@H]2[C@H](O)[C@@H](O)[C@@H](O[C@H]3[C@H](O)[C@@H](O)C(O)O[C@@H]3CO)O[C@@H]2CO)[C@H](O)[C@@H](O)[C@@H]1N[C@H]1C=C(CO)[C@@H](O)[C@H](O)[C@H]1O (some centres undefined) [Acarbose] | 1.19 | 1.07 | 1.01 | 1.17 | 0.913 | 1 | 1 | 1.01 | 0.952 | 1.01 | 1.02 | 0.992 | 1.05 | 1.01 | 0.984 | 1.05 | 1.04 | 1.01
COc1nc(N)nc2c1ncn2[C@@H]1O[C@H](CO)[C@@H](O)[C@@H]1O [Nelarabine (Arranon)] | 1.2 | 1.01 | 1.13 | 1.01 | 1.04 | 1.19 | 1.03 | 1.18 | 1.04 | 0.998 | 0.997 | 0.936 | 1.01 | 1.04 | 1.02 | 1.09 | 1.03 | 1.05
N=C(N)NC(=N)NCCc1ccccc1 [Phenformin HCl] | 1.31 | 1.36 | 1.38 | 1.19 | 1.57 | 1.53 | 1.36 | 1.25 | 1.18 | 1.03 | 1.08 | 0.969 | 1.06 | 1.07 | 0.977 | 1.1 | 1.1 | 1.08
